Results: US20030162228A1
Results are given in words; binding and its absence hold for the method and conditions named. For some of these results: In cells and extracts the contact can be indirect. Some binding calls cover weakened binding; strength is not graded here. Tags and fused reporters may be left off the sequences shown. One block for each binder: values may come before it.

How the values were obtained:
[1] = target: T1, recombinant human TAK1-6×His polypeptide (human) (UniProt O43318); assay: ELISA, legend of FIG. 2
T1 sequence: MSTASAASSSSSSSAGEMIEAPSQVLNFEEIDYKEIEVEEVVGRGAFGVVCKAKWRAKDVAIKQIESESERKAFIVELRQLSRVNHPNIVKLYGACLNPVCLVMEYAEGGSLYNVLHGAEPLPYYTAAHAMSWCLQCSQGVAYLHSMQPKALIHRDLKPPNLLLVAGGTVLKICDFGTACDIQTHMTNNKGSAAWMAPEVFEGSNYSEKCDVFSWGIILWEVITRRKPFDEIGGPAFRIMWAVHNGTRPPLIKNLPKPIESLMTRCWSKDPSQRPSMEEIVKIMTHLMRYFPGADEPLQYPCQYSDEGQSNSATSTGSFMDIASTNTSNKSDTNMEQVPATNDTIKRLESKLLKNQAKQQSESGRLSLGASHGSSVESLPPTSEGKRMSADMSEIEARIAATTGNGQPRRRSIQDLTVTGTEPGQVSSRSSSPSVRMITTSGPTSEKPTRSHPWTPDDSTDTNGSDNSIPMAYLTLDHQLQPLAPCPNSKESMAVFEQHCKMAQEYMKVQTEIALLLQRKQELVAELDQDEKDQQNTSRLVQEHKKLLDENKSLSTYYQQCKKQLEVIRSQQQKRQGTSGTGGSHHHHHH

[2] = target: T1, recombinant human TAK1-6×His polypeptide (human); assay: ELISA on plate-immobilised TAK1-6×His, absorbance at 405 nm; control wells without TAK1
[3] = target: T1, recombinant human TAK1-6×His polypeptide (human); assay: ELISA, TAK1-6×His immobilised (100 ng per well), detection with rabbit anti-MBP antiserum, absorbance at 405 nm
[4] = target: T1, recombinant human TAK1-6×His polypeptide (human); assay: co-immunoprecipitation with anti-TAK1 antibody from mixed COS-7 cell extracts, Western analysis with anti-FLAG M2 antibody
[5] = target: T2, TAK1 expressed from yeast 2-hybrid expression vector pBTMHu11F (Homo sapiens (Human)) (UniProt O43318); assay: yeast 2-hybrid method
T2 sequence: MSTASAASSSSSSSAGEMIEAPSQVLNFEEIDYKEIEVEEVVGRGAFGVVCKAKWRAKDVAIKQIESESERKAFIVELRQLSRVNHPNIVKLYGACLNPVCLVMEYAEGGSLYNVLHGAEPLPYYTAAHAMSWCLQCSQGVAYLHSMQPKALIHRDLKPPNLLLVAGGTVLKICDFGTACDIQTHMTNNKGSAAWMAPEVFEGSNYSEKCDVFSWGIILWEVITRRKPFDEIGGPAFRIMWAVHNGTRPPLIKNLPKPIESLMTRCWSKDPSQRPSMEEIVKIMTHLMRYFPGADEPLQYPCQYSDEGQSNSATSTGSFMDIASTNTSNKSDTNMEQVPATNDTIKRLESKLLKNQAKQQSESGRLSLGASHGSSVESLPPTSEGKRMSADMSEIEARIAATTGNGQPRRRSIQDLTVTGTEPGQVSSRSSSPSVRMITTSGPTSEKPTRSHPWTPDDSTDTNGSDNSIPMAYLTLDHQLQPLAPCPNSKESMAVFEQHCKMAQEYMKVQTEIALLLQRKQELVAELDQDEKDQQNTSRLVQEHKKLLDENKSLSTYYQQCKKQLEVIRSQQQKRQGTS

binding [5]: binds
Binder: GLFRSRPAHSLPPGEDGRVEPYVDFAEFYRLWSVDHGEQSVVTAP (peptide, not shown: large carriers) [TAB1C45, fusion with the GAL4 transcription activated domain (pGAD-TAB1C45)]

binding [5]: binds
Binder: RPAHSLPPGEDGRVEPYVDFAEFYRLWSVDHGEQSVVTAP (peptide, not shown: large carriers) [TAB1C40, fusion with the GAL4 transcription activated domain (pGAD-TAB1C40)]

More lines, now with the values behind:

B1: recombinant MBP-TAB1C-FLAG polypeptide (protein, not shown: large carriers)
chain: ASTLDEATPTLTNQSPTLTLQSTNTHTQSSSSSSDGGLFRSRPAHSLPPGEDGRVEPYVDFAEFYRLWSVDHGEQSVVTAPDYKDDDDK
binding [1]: binds | binding [2]: binds | binding [3]: binds

B2: FLAG-TAB1 (protein)
chain: MDYKDDDDKMAAQRRSLLQSEQQPSWTDDLPLCHLSGVGSASNRSYSADGKGTESHPPEDSWLKFRSENNCFLYGVFNGYDGNRVTNFVAQRLSAELLLGQLNAEHAEADVRRVLLQAFDVVERSFLESIDDALAEKASLQSQLPEGVPQHQLPPQYQKILERLKTLEREISGGAMAVVAVLLNNKLYVANVGTNRALLCKSTVDGLQVTQLNVDHTTENEDELFRLSQLGLDAGKIKQVGIICGQESTRRIGDYKVKYGYTDIDLLSAAKSKPIIAEPEIHGAQPLDGVTGFLVLMSEGLYKALEAAHGPGQANQEIAAMIDTEFAKQTSLDAVAQAVVDRVKRIHSDTFASGGERARFCPRHEDMTLLVRNFGYPLGQMSQPTPSPAPAAGGRVYPVSVPYSSAQSTSKTSVTLSLVMPSQGQMVNGAHSASTLDEATPTLTNQSPTLTLQSTNTHTQSSSSSSDGGLFRSRPAHSLPPGEDGRVEPYVDFAEFYRLWSVDHGEQSVVTAP
binding [4]: binds

B3: TAB1C68, fusion with the GAL4 transcription activated domain (pGAD-TAB1) (protein, not shown: large carriers)
chain: QSPTLTLQSTNTHTQSSSSSSDGGLFRSRPAHSLPPGEDGRVEPYVDFAEFYRLWSVDHGEQSVVTAP
binding [5]: binds
